Laboratory results published in paper doi:10.1101/720508.
Results are given in words; binding and its absence hold for the method and conditions named. In cells and extracts the contact can be indirect. These calls come from enrichment with a bait or labelling near it, and not all partners need be listed.

By UniProt entry, the sequences of proteins in these tests, tags left out. Where a name states a change or a piece, a line headed by the entry shows the natural chain unless it says otherwise. Chains listed by the source or under a name are the forms on record and can include a tag or linker. Residues count along the entry.
UniProt O55143: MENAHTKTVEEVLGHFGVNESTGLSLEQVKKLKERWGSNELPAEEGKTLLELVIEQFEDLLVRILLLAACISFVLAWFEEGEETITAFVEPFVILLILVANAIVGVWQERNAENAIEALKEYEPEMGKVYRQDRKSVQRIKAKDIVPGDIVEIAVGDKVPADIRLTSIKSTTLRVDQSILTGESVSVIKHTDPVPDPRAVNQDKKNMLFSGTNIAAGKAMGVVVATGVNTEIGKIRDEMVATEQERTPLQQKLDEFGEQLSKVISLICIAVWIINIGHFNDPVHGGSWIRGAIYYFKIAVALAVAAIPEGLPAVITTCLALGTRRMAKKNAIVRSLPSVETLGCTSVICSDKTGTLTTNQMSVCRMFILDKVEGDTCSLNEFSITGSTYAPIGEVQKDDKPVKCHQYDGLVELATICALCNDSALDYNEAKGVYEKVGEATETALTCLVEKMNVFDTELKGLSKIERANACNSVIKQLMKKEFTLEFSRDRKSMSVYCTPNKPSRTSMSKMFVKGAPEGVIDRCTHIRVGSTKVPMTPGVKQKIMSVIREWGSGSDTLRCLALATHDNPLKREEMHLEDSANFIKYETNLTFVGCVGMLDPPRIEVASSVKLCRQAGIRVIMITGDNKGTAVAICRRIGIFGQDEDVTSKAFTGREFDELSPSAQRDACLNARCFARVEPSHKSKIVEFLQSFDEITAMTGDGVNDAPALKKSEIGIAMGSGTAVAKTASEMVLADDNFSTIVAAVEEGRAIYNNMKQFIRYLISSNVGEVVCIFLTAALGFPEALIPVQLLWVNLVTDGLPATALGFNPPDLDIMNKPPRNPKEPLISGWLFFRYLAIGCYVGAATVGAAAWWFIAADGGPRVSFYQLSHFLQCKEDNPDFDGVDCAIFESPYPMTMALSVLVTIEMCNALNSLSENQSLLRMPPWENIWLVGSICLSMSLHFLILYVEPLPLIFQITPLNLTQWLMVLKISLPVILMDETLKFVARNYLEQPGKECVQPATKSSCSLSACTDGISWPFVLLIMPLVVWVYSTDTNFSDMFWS
UniProt P14231: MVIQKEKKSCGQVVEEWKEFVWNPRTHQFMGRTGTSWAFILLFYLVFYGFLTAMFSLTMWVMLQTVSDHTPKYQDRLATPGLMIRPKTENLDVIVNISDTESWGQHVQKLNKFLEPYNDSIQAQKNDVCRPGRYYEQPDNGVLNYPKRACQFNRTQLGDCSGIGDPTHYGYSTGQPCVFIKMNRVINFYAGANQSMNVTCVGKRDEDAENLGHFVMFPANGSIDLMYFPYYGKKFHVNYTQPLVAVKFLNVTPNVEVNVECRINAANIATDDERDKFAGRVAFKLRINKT
UniProt P56480, residues 47-529: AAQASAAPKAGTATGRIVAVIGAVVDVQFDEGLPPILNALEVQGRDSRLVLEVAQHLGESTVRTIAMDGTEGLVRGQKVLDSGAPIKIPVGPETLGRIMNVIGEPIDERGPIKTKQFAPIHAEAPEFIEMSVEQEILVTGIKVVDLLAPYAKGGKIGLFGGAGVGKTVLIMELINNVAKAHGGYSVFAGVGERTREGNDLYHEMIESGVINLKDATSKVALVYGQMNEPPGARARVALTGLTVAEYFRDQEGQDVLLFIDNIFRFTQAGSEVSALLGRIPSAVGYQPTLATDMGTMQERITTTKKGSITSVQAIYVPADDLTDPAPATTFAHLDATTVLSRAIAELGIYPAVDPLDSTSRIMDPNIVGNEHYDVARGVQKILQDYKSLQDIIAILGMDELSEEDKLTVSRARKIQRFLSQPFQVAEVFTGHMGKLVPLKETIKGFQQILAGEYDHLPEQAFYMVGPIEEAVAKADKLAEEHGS
UniProt Q9JIS5: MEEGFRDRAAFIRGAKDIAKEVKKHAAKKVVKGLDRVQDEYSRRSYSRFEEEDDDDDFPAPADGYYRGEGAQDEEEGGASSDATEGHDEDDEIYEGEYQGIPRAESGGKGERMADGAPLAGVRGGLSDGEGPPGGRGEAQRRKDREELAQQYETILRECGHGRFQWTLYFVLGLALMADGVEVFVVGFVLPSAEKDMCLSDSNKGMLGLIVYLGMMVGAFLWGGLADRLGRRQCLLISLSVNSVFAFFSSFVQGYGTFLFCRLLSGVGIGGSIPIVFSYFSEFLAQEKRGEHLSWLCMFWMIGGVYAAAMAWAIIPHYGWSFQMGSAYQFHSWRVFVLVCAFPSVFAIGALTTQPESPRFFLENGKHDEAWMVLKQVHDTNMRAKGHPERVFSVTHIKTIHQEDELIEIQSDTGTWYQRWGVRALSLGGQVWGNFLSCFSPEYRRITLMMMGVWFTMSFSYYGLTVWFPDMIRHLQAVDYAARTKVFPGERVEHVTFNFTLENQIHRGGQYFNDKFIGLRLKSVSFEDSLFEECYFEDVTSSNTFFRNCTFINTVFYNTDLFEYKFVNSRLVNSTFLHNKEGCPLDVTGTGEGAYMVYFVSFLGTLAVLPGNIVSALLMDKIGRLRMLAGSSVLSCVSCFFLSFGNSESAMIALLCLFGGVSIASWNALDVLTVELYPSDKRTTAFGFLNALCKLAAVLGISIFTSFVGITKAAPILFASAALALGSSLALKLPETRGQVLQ
AT2B3 (calcium ATPase) (Q8C048, form named): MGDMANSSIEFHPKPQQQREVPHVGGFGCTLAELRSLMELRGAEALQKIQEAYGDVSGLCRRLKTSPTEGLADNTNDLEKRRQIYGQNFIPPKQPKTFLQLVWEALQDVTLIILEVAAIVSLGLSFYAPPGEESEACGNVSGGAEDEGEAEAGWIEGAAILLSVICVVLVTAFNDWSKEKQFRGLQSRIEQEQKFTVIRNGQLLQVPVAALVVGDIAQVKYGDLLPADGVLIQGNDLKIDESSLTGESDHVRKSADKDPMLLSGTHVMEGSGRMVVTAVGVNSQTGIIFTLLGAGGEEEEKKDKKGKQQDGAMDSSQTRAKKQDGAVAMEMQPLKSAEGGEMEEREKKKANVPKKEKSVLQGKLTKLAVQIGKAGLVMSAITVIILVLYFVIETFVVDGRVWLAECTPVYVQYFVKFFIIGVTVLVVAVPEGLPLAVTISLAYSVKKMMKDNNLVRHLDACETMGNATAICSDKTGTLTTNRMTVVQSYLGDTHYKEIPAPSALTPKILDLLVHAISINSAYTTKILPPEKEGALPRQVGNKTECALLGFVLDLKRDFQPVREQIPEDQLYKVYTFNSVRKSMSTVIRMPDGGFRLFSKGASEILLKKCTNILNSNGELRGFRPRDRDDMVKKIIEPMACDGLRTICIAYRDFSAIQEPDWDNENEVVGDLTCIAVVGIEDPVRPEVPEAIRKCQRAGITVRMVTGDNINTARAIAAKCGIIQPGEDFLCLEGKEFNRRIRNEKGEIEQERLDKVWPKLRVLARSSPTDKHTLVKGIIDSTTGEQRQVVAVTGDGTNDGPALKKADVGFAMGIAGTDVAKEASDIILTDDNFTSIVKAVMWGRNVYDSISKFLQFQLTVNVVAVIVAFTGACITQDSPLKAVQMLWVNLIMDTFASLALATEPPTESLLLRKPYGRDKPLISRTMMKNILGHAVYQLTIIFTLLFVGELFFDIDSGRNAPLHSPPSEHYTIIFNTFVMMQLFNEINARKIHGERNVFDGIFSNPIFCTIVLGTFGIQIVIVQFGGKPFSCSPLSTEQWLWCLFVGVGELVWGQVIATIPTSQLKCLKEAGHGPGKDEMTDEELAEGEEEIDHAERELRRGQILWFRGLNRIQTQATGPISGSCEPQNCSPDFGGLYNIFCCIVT

Each substance was assayed against T1, GPR151 (mouse (endogenous in IPN)) (UniProt Q7TSN6) (assay: affinity purification with mass spectrometry).
T1 sequence: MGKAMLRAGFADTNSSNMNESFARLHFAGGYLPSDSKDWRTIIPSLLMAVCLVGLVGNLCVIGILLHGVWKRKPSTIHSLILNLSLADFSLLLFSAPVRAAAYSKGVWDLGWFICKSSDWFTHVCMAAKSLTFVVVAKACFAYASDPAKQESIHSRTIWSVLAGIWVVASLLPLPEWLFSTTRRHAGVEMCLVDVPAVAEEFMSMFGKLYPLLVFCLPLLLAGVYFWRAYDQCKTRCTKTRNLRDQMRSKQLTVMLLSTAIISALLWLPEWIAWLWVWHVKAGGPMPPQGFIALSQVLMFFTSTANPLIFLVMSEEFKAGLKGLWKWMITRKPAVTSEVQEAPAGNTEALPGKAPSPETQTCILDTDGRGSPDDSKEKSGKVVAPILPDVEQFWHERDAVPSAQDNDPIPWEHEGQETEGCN

| Substance | binding |
| --- | --- |
| AT2A2 (calcium ATPase) (from UniProt O55143 1-1044) | binds |
| AT1B2 (sodium/potassium ATPase structural β-subunit) (from UniProt P14231 1-290) | binds |
| AT5B (H+ transporting ATPase) (from UniProt P56480 47-529) | binds |

Next, values leading:

| binding | Substance |
| --- | --- |
| binds | Synaptic vesicle glycoprotein 2A (SV2A) (from UniProt Q9JIS5 1-742) |
| binds | AT2B3 (calcium ATPase) (from UniProt Q8C048 1-1144) |
